Experimental data: PubChem BioAssay AID686937 (Drosophila RNAi Screening Center, 2013)
Assay: 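Genes in the fly needed for secretion of protein constitutively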 (primary screen). Cells: Drosophila S2 cells expressing secreted horseradish peroxidase. Reagents: long dsRNA against Drosophila genes. Timing: about 5.5 days (5 days dsRNA, then 12 h reporter induction). Treatment: reporter expression induced after 5 days of dsRNA, read 12 h later; inducer not stated. Read-out: 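Chemiluminescent measurement of peroxidase in the medium 12 h after reporter induction, following 5 days of dsRNA, given as a z-score per plate; higher means more secretion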. Scale: z-score: higher = more reporter secreted into medium.
The deposit covers about 23,000 reagents; this is a random part of those that have a named target and a result. 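Reduced-secretion tags in replicate 1 do not always agree with the z-scores; no criterion for assigning the tags was given.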 Not given: the amount of reagent.

gene | amplicon | z-score, replicate 1 | z-score, replicate 2 | z-score, replicate 3 | z-score, replicate 4 | phenotype, replicate 1
CG17168 | DRSC20904 | -3.34 | -1.29 | – | – | –
CG15745 (retired record) | DRSC19711 | 0.38 | 0.5 | – | – | –
bves | DRSC20520 | -0.22 | 0.15 | – | – | –
bves | DRSC20554 | 0.28 | 0.18 | – | – | –
bves | DRSC20555 | 0.43 | 0.35 | – | – | –
CG15695 | DRSC15117 | -0.05 | -0.38 | – | – | –
SmydA-1 | DRSC07200 | 0.17 | 0.21 | – | – | –
CG3038 | DRSC18618 | 0.21 | 0.12 | – | – | –
CG7945 | DRSC10934 | 0.47 | 0.44 | – | – | –
CG16782 | DRSC18118 | -0.23 | -0.43 | – | – | –
CG32241 | DRSC08100 | -0.03 | 0.45 | 0.3 | 0.27 | –
CG32241 | DRSC21518 | 0.6 | -0.37 | – | – | –
Rat1 | DRSC02044 | -0.14 | 0.25 | – | – | –
Pgls | DRSC19769 | 0.36 | 0.61 | – | – | –
nyo | DRSC15029 | 0.38 | 0.41 | – | – | –
nyo | DRSC15030 | 0.26 | 0.13 | – | – | –
Gsc | DRSC00755 | 0.44 | 0.2 | – | – | –
CG13946 | DRSC00364 | 0.19 | 0.34 | – | – | –
ATP8 (retired record) | DRSC21277 | 0.41 | -0.04 | – | – | –
CG8492 | DRSC10984 | -0.81 | 0.55 | 0.3 | 0.53 | –
CG8492 | DRSC21804 | -0.32 | 0.55 | – | – | –
CG40045 | DRSC21232 | 0.25 | 0.36 | – | – | –
CG13955 | DRSC06443 | 0.02 | 0.34 | – | – | –
nrv1 | DRSC03382 | 0.64 | 0.4 | – | – | –
NaPi-T | DRSC07476 | 0.34 | 0.28 | – | – | –
Desat1 | DRSC16668 | -4.89 | -3.88 | – | – | reduced secretion
twr | DRSC12491 | -2.21 | -1.39 | – | – | reduced secretion
kst | DRSC08719 | 0.26 | 0.13 | – | – | –
CG15034 | DRSC17966 | 0.2 | 0.56 | – | – | –
Itpr | DRSC12354 | 0.25 | 0.4 | – | – | –
CG15385 | DRSC00399 | 0.14 | 0.41 | – | – | –
Zw10 | DRSC18793 | 0.05 | -0.09 | – | – | –
CG7548 | DRSC10874 | 0.41 | 0.36 | – | – | –

Ordered by “z-score, replicate 1” (descending): some entries from above
gene | amplicon | z-score, replicate 1 | z-score, replicate 2 | z-score, replicate 3 | z-score, replicate 4 | phenotype, replicate 1
nrv1 | DRSC03382 | 0.64 | 0.4 | – | – | –
NaPi-T | DRSC07476 | 0.34 | 0.28 | – | – | –
kst | DRSC08719 | 0.26 | 0.13 | – | – | –
twr | DRSC12491 | -2.21 | -1.39 | – | – | reduced secretion
Desat1 | DRSC16668 | -4.89 | -3.88 | – | – | reduced secretion
